From patent publication EP0638079B1, “DEAZAAMINOPTERINS FOR TREATMENT OF INFLAMMATION” (SRI INTERNATIONAL, priority 1992, dated 1993)
The name of at least one read-out is uncertain.

System: DBA/1 mice
Experiment: Type II collagen arthritis mouse model (visual inflammation, rear paw swelling)
Assay type: in vivo
Conditions: Table IIA, caliper
Source text: The following data illustrate administration to mice of several deazaaminopterin compounds of the invention and methotrexate in the evaluation of anti-inflammatory activity. The data are presented as two separate observations, the visually observed presence of inflammation in the mouse, and the caliper-measured degree of swelling of the rear paws of the mouse.
The efficacy evaluation used a mouse model of inflammatory disease that occurs in response to an antigenic challenge with Type II collagen [J. S. Courtenay et al., Nature, 283, 666-668 (1980)].
The fundamental aspects of the model allow it to serve as a representative presentation of human disease. The parallels between the known aspects of the mouse model and rheumatoid arthritis include a humoral response in which antibodies are produced to an antigen that is present in the joint tissue and the antigenic challenge is accompanied by cell-mediated aspects of immunity. […]
The effect of methotrexate and test compounds on the extent of inflammation was determined by direct analysis of paw swelling using caliper measurements. The results are presented in Table IIA, and show a direct correlation between the decrease in the number of animals having disease and a decrease in the extent of inflammation, as determined by paw swelling. […]

CN(Cc1cnc2nc(N)nc(N)c2n1)c1ccc(C(=O)N[C@@H](CCC(=O)O)C(=O)O)cc1 [MTX, methotrexate, reference compound]
Ave. thickness of rear paws (mm) over days 30-44, Treated (30 day measurement (first value in parentheses)): 2.18 mm | Ave. thickness of rear paws (mm) over days 30-44, Treated (44 day measurement (second value in parentheses)): 2.34 mm
